# Results: PubChem BioAssay AID1347076 (National Center for Advancing Translational Sciences (NCATS), 2019)
# Screen size: about 400,000 compounds; about 13,000 (3.2%) were called active. The shares of active, inactive and inconclusive entries below differ from those in the screen. The call rests on the fitted dose curve; in most records, active means well fitted cell-killing curve with a large enough effect; inconclusive means small, poorly fitted or top-dose-only effect, or effect the other way; inactive means flat fitted curve, though single readings scatter. Potencies beside an inconclusive call are fits to weak or partial responses and may not hold up.
# Test: qHTS assay for MDR1-selective chemotherapeutics: Primary screen using the drug-selected MDR subline cells KB-V1; further: nearly all actives have a fitted effect of over 60% in size
# Settings: KB-V1 MDR cells viability, CellTiter-Glo, 72 h; series mostly up to 46.1 µM
# Procedure, shortened: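 Drug-selected KB-V1 cells, grown in DMEM lacking phenol red with 10% FBS, receive compound titrations; after three days at 37 degrees C, surviving cell ATP is quantified by CellTiter-Glo luminescence and responses normalized and curve-fitted.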
# Potency means the concentration at half of the fitted maximal effect.
row,SMILES,Potency
1,COCC(=O)N1CCCC(C(=O)c2ccc3c4c(cccc24)CC3)C1 (centres undefined),"inconclusive: 20.6 µM [cytotoxic, single point]"
2,COC(=O)c1cccc(NC(=O)c2ccc3c(c2)C(=O)N(Cc2cccnc2)C3=O)c1C,inactive
3,COc1ccc(CCC(C(O)C(F)(F)F)S(=O)c2ccccc2)cc1 (centres undefined),"inconclusive: 32.6 µM [cytotoxic, single point]"
4,Cc1ccc(-c2csc3ncnc(-n4nnc5ccccc54)c23)cc1C,"inconclusive: 13 µM [cytotoxic, partial curve]"
5,COc1ccccc1[C@H]1C(c2cccc(Cl)c2)=NN(c2ccccc2)[C@@H]1CO,inactive
6,Cn1c(N)c(C(=O)c2cc(-c3ccccn3)nc3ccccc23)c(=O)[nH]c1=O,inactive
7,CC(=O)NC(c1cccc([N+](=O)[O-])c1)c1ccc2cccnc2c1O (centres undefined),"inconclusive: 23.1 µM [cytotoxic, partial curve, poor fit]"
8,O=C(Nc1cccc(Cl)c1)N1CCSc2cc(Cl)ccc21,active: 18.4 µM
9,NS(=O)(=O)OCC1CCCCC1,"inconclusive: 20.6 µM [rising, single point]"
10,COc1ccc(NC(=O)CSc2cn(CCNC(=O)c3c(F)cccc3F)c3ccccc23)cc1,inactive
11,Cc1ccccc1OCc1nc(C#N)c(N2CCCC2)o1,inactive
12,COc1ccc(-c2nc(C#N)c(NC(C)c3ccccc3)o2)cc1OC (centres undefined),"inconclusive: 18.4 µM [cytotoxic, partial curve]"
13,COc1ccc(NC(=O)Nc2cccc3c2O[C@H](CN(C)C(=O)NC(C)C)[C@@H](C)CN([C@H](C)CO)C3=O)cc1,inactive
14,O=C(Nc1ccc([N+](=O)[O-])cc1)C(=O)Nc1cccc(C(=O)O)c1,"inconclusive: 3.66 µM [cytotoxic, full curve]"
15,Cc1ccc(Oc2nc3c(c(=O)n(Cc4ccccc4F)c(=O)n3C)n2C)cc1,active: 11.6 µM
16,CCN1CCN(Cc2c(O)ccc3c(=O)c(Oc4ccccc4C(C)C)c(C(F)(F)F)oc23)CC1,inactive
17,COc1ccc2c(/C=C/c3cc[n+](C)cc3)c[nH]c2c1,"inconclusive: 6.51 µM [rising, full curve, poor fit]"
18,Cc1ccc(S(=O)(=O)Nc2ccccc2CNc2ccc(Br)cn2)cc1,active: 5.8 µM
19,O=C(NCCN1CCOCC1)c1sc2cc(Cl)ccc2c1Cl,"inconclusive: 20.6 µM [cytotoxic, single point]"
20,O=C(O)c1cccc2c1C(=O)c1ccc(-c3ccc(Cl)c(C(F)(F)F)c3)cc1S2(=O)=O,inactive
21,COc1ccccc1C(=O)NC(=O)COC(=O)CNC(=O)c1ccc(Cl)cc1Cl,inactive
22,COc1ccc(-c2onc(C)c2-c2ccc3c(c2)OCCO3)c(O)c1,"inconclusive: 29.1 µM [cytotoxic, single point]"

# Part of the list above in order of heavy-atom count, descending.
row,SMILES,Potency
13,COc1ccc(NC(=O)Nc2cccc3c2O[C@H](CN(C)C(=O)NC(C)C)[C@@H](C)CN([C@H](C)CO)C3=O)cc1,inactive
22,COc1ccc(-c2onc(C)c2-c2ccc3c(c2)OCCO3)c(O)c1,"inconclusive: 29.1 µM [cytotoxic, single point]"
19,O=C(NCCN1CCOCC1)c1sc2cc(Cl)ccc2c1Cl,"inconclusive: 20.6 µM [cytotoxic, single point]"

# Remaining list, next part.

row,SMILES,Potency
1,COc1ccc(CC(NC(C)=O)C(=O)NC2CCN(S(=O)(=O)c3ccc(NC(C)=O)cc3)CC2)cc1 (centres undefined),"inconclusive: 8.2 µM [rising, partial curve]"
2,Cc1ccc(-c2cc(C(=O)N3CCN(c4ccc(O)cc4)CC3)c3ccccc3n2)cc1,inactive
3,COc1ccc(/C=C/C(=O)Oc2cc(O)cc(O)c2)cc1,inactive
4,COc1ccc(-c2noc(-c3ccc(NC4CCCC4)c([N+](=O)[O-])c3)n2)cc1OC,"inconclusive: 20.6 µM [rising, single point]"
5,CC[C@@H](C)C(NC(=O)OC(C)(C)C)c1cn([C@@H](Cc2cc3ccccc3[nH]2)C(=O)N2CCN(C(=O)OC(C)(C)C)CC2)nn1 (some centres undefined),"inconclusive: 10.3 µM [cytotoxic, partial curve]"
6,Cc1ccc(NC(=O)Cn2cnc3c2c(=O)n(C)c(=O)n3C)cc1C,inactive
7,CCN(C(=O)Cn1c(=O)n(Cc2ccccc2)c(=O)c2c1c1cc(OC)ccc1n2C)c1ccccc1,inactive
8,Cc1ccc(Nc2nnc(SCC(=O)Nc3ccccc3[N+](=O)[O-])s2)cc1,"inconclusive: 29.1 µM [cytotoxic, single point]"
9,c1ccc(N2CCN(c3cccc(-c4cc5ccccc5s4)n3)CC2)nc1,inactive
10,COc1ccc(CN2CCCC(CO)(Cc3ccc(F)cc3F)C2)cc1 (centres undefined),inactive
11,Cc1ccc(C(=O)O/N=C\c2ccc(N3CCOCC3)c([N+](=O)[O-])c2)cc1,"inconclusive: 14.6 µM [cytotoxic, partial curve, poor fit]"
12,Cc1coc2c(C)c3oc(=O)c(CCC(=O)N4CCC(C(=O)NCCCC(=O)O)(c5ccccc5)CC4)c(C)c3cc12,"inconclusive: 23.1 µM [cytotoxic, single point]"
13,COc1ccc(C2=Nc3ccc(OC(F)(F)F)cc3NC(c3cccnc3)=N2)cc1,inactive
14,Cc1ccc(Cn2cccc(NC(=O)CCC3CCCC3)c2=O)cc1,"inconclusive: 13 µM [cytotoxic, partial curve]"
15,S=C(Nc1ccc(Cl)cc1)Nc1ccc2cn[nH]c2c1,"inconclusive: 20.6 µM [rising, single point]"
16,COC(=O)c1ccccc1COc1cccn2c(N(C)Cc3cccs3)c(C)nc12,active: 18.4 µM
17,Cc1ccc(F)c(S(=O)(=O)NC(=O)C2(C)CCN2C(=O)CC2CCCCC2)c1 (centres undefined),"inconclusive: 11.6 µM [rising, partial curve, poor fit]"
18,O=C(Oc1cccc2cccnc12)c1cccc([N+](=O)[O-])c1,"inconclusive: 29.1 µM [cytotoxic, single point]"
19,CCOc1ccc(NC(=O)CC(Cc2ccc(Cl)cc2)C(=O)O)cc1 (centres undefined),"inconclusive: 13 µM [rising, partial curve, poor fit]"
20,Cc1cc(C(=O)NCCN2CCOCC2)c2ccccc2n1,"inconclusive: 0.0092 µM [rising, full curve, poor fit]"
21,CCCN1C/C(=C/c2ccc3c(c2)OCO3)C(=O)/C(=C/c2ccc3c(c2)OCO3)C1,"inconclusive: 13 µM [cytotoxic, partial curve, poor fit]"
22,COc1ccc(CNC(=O)C2CCN(S(=O)(=O)c3ccc4c(c3)CCCN4C(C)=O)CC2)cc1,inactive
